According to PubChem BioAssay AID504467 (National Center for Advancing Translational Sciences (NCATS), 2011):
The campaign covered roughly 330,000 compounds. About 7,700 (2.3%) were called active. The inconclusive results got no clear call from the source; some entries with a clear call stand among them for comparison. Calls follow the shape of the dose curve; as a rule, active = well fitted inhibition curve with a large enough effect; inconclusive = small, poorly fitted or top-dose-only effect, or effect the other way; inactive = flat fitted curve, though single readings scatter. Where the call is inconclusive, the potency comes from a doubtful curve fit.
Potency is read from the fitted curve at half-maximal effect.

Test: qHTS screen for small molecules that inhibit ELG1-dependent DNA repair in human embryonic kidney (HEK293T) cells expressing luciferase-tagged ELG1; also: nearly all actives have a fitted effect of over 55% in size
Settings: HEK293T ELG1-luciferase reporter, luminescence, 16 h, DNA damage induced by 5-fluorouridine; series mostly up to 46.1 µM
In short: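 Quantitative HTS, concentration-response format. 2,000 cells/well co-treated with 5-fluorouridine and compound, 16 hr in 5% CO2 at 37 °C; ONE-Glo luminescence read after 30 min.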
With `COc1ccc(CCN(C)C(=O)c2cc(S(=O)(=O)NCc3ccccc3)ccc2C)cc1OC` the Potency was active: 8.2 µM. With `COc1cc(-c2n[nH]c(=S)n2-c2ccc(C)cc2)cc(OC)c1OC` the Potency was inconclusive: 18.3 µM [inhibitor, single point]. For `CC(C)C(C)(C#N)NC(=O)CSc1nc2scc(-c3ccco3)c2c(=O)n1-c1ccccc1` (stereo not given), the Potency was inconclusive: 14.6 µM [inhibitor, single point]. For `COc1ccccc1C(CNC(=S)NCc1ccccc1)N1CCCC1` (stereo not given), the Potency was “inactive”. In the case of `O=C(NCCCN1CCCC1=O)c1cc(-c2cccnc2)nc2ccc(Cl)cc12`, the Potency was inconclusive: 32.6 µM [inhibitor, partial curve, poor fit]. In the case of `CCOc1ccc(OCc2ccc(C(=O)NC(C)(C)C)o2)cc1`, the Potency was inconclusive: 35.5 µM [inhibitor, single point]. With `CCn1c(SCC(=O)Nc2ncc(C(F)(F)F)cc2Cl)nnc1-c1cccc(C)c1` the Potency was “inactive”. With `CCC1=NC(c2ccc(OC)cc2)N(O)C1(C)C` (stereo not given) the Potency was “inactive”. With `CC(=O)c1cccc(Nc2nc(=O)c3cccnc3s2)c1` the Potency was inconclusive: 29.1 µM [activator, single point]. For `COc1ccc(C2CC(c3ccccc3)=NN2C(=O)CN2CCN(Cc3ccccc3)CC2)cc1` (stereo not given), the Potency was active: 18.3 µM. With `Nc1ccccc1SCc1csc(-c2ccc(Cl)cc2)n1` the Potency was inconclusive: 16.4 µM [activator, single point]. In the case of `Cc1ccc(C)c(N2CCN(S(=O)(=O)c3cc4c(cc3Cl)NC(=O)CO4)CC2)c1`, the Potency was “inactive”. For `CC(=O)Nc1ccc(NC(=O)CSc2nc3ccccc3nc2N2CCC(C)CC2)cc1`, the Potency was “inactive”. For `O=C(Nc1cccnc1)C1CCN(S(=O)(=O)c2ccc(Cl)cc2)CC1`, the Potency was “inactive”. For `COc1ccc2oc(C(=O)OCC(=O)NCc3ccccc3OC)c(C)c2c1`, the Potency was inconclusive: 14.6 µM [inhibitor, partial curve, poor fit]. In the case of `CCOc1ccc(-c2nnc(N3CCCCC3)c3ccccc23)cc1`, the Potency was inconclusive: 25.9 µM [inhibitor, single point]. In the case of `CCn1c(=O)c([N+](=O)[O-])c(NCCN(C)C)c2ccccc21`, the Potency was inconclusive: 20.6 µM [activator, partial curve, poor fit]. For `Cc1ccccc1NC(c1cccc(Cl)c1)c1nnnn1C1CCCCC1` (stereo not given), the Potency was inconclusive: 29.1 µM [activator, single point]. With `O=C(CCS(=O)(=O)c1ccc(Br)cc1)NC1CCCCCC1` the Potency was “inactive”. For `O=C(c1ccco1)N1N=C(c2cccs2)CC1c1ccco1` (stereo not given), the Potency was inconclusive: 29.1 µM [inhibitor, single point].
